Paper PMC8865542

By UniProt entry, the sequences of proteins in these tests, tags left out.
UniProt D0EZM8: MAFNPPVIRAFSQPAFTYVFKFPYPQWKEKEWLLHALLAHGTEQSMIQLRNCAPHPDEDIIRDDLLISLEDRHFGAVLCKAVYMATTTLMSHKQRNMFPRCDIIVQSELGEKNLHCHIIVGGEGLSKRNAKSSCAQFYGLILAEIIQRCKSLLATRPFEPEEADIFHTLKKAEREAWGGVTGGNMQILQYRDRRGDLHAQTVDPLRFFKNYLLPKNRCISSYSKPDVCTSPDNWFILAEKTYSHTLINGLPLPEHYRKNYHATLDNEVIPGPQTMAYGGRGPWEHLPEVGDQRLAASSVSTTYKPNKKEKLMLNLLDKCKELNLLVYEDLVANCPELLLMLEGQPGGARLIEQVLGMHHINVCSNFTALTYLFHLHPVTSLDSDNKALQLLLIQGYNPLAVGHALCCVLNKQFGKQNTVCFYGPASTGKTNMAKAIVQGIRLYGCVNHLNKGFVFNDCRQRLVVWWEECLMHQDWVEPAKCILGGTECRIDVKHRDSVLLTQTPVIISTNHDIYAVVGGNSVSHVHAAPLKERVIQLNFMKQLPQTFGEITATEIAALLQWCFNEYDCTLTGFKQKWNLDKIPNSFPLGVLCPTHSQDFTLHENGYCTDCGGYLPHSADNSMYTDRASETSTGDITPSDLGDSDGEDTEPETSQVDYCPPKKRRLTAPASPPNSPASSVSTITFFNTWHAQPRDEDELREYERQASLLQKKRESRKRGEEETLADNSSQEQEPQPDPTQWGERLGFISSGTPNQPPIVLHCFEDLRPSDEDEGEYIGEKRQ
UniProt P78527: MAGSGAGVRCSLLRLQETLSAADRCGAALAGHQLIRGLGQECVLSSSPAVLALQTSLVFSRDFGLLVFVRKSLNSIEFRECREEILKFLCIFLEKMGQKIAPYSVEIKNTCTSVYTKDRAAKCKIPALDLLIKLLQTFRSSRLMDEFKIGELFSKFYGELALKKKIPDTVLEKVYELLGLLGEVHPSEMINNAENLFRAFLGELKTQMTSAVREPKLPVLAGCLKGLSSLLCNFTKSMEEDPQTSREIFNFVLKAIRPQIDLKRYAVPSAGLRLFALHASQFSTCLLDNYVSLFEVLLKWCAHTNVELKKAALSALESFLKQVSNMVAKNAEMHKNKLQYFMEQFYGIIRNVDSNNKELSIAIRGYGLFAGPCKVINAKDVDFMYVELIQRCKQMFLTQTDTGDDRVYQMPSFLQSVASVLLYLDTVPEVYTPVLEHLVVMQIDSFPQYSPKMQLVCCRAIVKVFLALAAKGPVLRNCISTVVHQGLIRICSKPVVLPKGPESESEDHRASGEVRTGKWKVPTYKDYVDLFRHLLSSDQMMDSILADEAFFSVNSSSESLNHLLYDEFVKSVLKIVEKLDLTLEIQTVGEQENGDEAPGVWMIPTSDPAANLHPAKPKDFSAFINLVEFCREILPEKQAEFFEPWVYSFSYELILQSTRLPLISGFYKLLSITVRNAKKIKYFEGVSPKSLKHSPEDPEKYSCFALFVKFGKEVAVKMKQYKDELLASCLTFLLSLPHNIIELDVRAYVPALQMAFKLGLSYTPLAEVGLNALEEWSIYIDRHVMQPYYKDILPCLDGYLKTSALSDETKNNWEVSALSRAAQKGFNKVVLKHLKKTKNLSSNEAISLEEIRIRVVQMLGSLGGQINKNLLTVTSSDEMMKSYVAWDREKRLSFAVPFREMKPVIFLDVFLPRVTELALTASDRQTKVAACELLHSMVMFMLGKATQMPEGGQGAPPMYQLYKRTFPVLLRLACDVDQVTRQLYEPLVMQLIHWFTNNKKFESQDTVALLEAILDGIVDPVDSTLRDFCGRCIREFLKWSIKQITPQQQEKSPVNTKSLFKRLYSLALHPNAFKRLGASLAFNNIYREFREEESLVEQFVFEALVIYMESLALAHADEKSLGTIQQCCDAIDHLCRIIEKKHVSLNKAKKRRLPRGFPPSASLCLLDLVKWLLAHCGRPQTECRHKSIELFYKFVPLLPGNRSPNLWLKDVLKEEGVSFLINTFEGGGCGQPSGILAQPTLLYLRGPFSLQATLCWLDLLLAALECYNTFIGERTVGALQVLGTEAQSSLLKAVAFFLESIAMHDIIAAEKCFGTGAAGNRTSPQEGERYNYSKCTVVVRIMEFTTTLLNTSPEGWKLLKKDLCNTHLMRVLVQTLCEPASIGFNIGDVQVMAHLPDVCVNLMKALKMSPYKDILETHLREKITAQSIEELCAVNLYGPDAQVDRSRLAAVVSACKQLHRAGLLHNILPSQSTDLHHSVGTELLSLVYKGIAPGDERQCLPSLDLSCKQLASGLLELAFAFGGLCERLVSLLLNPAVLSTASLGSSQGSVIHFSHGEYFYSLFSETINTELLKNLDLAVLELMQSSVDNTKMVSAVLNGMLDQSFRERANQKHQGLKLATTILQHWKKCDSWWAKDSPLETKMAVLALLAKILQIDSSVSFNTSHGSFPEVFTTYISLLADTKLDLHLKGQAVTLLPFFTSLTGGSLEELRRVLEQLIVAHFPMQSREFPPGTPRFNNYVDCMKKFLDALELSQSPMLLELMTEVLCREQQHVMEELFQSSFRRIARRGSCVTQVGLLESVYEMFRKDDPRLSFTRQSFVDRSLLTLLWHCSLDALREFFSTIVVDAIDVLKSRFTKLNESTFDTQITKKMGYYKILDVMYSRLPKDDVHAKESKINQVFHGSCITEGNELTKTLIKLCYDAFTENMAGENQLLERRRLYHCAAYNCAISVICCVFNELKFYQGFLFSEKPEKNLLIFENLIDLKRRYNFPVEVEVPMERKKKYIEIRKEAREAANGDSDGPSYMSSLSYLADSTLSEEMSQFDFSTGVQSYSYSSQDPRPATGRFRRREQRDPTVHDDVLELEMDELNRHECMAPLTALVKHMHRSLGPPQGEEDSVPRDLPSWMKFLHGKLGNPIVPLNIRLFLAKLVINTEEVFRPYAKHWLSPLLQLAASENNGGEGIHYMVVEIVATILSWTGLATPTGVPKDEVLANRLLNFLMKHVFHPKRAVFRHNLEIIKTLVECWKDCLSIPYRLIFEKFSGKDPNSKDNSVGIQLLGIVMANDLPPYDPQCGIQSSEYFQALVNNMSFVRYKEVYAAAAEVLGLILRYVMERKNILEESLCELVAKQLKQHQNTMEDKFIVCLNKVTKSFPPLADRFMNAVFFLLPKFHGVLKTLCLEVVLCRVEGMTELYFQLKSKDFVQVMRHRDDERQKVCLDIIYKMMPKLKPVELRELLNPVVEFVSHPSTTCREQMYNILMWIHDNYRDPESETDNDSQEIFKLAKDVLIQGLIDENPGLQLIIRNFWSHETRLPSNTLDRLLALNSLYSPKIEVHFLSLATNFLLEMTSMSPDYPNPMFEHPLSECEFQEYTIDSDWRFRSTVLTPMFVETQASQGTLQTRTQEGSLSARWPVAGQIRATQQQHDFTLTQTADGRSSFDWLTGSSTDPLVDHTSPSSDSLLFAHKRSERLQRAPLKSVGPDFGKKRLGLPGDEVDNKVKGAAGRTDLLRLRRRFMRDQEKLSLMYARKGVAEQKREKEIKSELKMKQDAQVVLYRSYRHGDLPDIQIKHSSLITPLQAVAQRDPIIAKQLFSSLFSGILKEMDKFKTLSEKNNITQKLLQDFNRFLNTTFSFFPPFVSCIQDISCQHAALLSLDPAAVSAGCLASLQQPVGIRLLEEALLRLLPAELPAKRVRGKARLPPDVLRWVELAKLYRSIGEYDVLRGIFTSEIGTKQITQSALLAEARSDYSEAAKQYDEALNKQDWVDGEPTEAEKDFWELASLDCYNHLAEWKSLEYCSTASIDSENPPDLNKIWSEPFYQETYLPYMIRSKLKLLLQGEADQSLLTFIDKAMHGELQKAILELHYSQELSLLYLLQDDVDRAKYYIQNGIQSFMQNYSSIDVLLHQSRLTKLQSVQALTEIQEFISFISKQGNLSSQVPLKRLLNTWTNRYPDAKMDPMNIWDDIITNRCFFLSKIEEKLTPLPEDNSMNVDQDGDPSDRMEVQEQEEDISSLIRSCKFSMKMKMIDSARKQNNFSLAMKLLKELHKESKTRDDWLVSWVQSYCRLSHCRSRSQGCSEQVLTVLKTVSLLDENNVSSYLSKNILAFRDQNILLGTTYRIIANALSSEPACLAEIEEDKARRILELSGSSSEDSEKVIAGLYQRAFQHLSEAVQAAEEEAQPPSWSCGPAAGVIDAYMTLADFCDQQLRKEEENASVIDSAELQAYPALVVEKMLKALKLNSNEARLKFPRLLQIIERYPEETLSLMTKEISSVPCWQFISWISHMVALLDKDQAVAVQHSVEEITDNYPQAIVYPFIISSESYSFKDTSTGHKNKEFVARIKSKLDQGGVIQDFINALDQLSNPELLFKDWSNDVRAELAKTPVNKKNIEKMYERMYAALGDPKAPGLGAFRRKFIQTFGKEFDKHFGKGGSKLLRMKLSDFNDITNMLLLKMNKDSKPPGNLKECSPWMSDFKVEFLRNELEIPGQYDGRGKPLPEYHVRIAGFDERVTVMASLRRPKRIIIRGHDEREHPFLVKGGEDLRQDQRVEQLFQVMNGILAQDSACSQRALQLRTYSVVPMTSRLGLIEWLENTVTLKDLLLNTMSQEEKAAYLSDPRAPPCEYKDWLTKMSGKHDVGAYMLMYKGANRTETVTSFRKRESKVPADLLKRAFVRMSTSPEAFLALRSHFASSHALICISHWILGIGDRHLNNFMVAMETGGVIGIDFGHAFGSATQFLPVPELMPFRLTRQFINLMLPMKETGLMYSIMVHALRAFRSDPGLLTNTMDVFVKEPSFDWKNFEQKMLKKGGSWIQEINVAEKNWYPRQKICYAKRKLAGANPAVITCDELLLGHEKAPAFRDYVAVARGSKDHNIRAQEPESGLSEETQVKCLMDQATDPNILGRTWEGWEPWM
UniProt P11142: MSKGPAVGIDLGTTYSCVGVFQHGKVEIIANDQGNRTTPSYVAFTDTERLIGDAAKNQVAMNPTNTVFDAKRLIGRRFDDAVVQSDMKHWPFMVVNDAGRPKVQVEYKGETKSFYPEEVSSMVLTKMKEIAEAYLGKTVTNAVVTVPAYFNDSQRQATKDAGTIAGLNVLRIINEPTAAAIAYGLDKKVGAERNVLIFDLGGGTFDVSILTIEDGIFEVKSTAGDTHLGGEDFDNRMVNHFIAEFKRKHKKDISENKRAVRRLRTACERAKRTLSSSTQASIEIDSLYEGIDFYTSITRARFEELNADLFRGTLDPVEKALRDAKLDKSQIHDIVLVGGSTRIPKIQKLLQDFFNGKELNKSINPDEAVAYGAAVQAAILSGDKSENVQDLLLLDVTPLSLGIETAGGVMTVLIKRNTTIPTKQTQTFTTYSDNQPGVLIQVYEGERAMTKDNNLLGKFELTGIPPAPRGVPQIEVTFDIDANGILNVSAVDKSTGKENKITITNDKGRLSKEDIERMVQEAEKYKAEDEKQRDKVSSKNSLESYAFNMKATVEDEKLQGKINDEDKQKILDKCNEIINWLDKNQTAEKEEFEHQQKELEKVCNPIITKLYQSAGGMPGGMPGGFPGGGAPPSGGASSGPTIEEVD
UniProt P27694: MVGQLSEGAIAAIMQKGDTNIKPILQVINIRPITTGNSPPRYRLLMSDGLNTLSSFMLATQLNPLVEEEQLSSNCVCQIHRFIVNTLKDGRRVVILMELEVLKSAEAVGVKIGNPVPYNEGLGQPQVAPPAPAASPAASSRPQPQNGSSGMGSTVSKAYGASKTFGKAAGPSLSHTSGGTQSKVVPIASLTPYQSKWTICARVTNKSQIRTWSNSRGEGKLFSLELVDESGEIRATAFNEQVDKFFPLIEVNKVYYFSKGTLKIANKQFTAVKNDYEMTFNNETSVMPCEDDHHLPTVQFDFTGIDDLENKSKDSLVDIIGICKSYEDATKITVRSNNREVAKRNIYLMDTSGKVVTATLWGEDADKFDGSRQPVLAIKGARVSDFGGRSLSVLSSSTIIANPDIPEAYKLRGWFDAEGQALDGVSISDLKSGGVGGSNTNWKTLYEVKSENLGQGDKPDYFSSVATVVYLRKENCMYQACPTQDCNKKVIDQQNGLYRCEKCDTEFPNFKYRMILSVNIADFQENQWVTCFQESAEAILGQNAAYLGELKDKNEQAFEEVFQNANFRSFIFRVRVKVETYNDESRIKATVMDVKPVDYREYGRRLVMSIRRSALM

B1: SNW1 (protein, UniProt Q13573 1-536)
chain: MALTSFLPAPTQLSQDQLEAEEKARSQRSRQTSLVSSRREPPPYGYRKGWIPRLLEDFGDGGAFPEIHVAQYPLDMGRKKKMSNALAIQVDSEGKIKYDAIARQGQSKDKVIYSKYTDLVPKEVMNADDPDLQRPDEEAIKEITEKTRVALEKSVSQKVAAAMPVRAADKLAPAQYIRYTPSQQGVAFNSGAKQRVIRMVEMQKDPMEPPRFKINKKIPRGPPSPPAPVMHSPSRKMTVKEQQEWKIPPCISNWKNAKGYTIPLDKRLAADGRGLQTVHINENFAKLAEALYIADRKAREAVEMRAQVERKMAQKEKEKHEEKLREMAQKARERRAGIKTHVEKEDGEARERDEIRHDRRKERQHDRNLSRAAPDKRSKLQRNENRDISEVIALGVPNPRTSNEVQYDQRLFNQSKGMDSGFAGGEDEIYNVYDQAWRGGKDMAQSIYRPSKNLDKDMYGDDLEARIKTNRFVPDKEFSGSDRRQRGREGPVQFEEDPFGLDKFLEEAKQHGGSKRPSDSSRPKEHEHEGKKRRKE
B2: ORC3 (protein, UniProt Q9UBD5 1-711)
chain: MATSSMSKGCFVFKPNSKKRKISLPIEDYFNKGKNEPEDSKLRFETYQLIWQQMKSENERLQEELNKNLFDNLIEFLQKSHSGFQKNSRDLGGQIKLREIPTAALVLGVNVTDHDLTFGSLTEALQNNVTPYVVSLQAKDCPDMKHFLQKLISQLMDCCVDIKSKEEESVHVTQRKTHYSMDSLSSWYMTVTQKTDPKMLSKKRTTSSQWQSPPVVVILKDMESFATKVLQDFIIISSQHLHEFPLILIFGIATSPIIIHRLLPHAVSSLLCIELFQSLSCKEHLTTVLDKLLLTTQFPFKINEKVLQVLTNIFLYHDFSVQNFIKGLQLSLLEHFYSQPLSVLCCNLPEAKRRINFLSNNQCENIRRLPSFRRYVEKQASEKQVALLTNERYLKEETQLLLENLHVYHMNYFLVLRCLHKFTSSLPKYPLGRQIRELYCTCLEKNIWDSEEYASVLQLLRMLAKDELMTILEKCFKVFKSYCENHLGSTAKRIEEFLAQFQSLDETKEEEDASGSQPKGLQKTDLYHLQKSLLEMKELRRSKKQTKFEVLRENVVNFIDCLVREYLLPPETQPLHEVVYFSAAHALREHLNAAPRIALHTALNNPYYYLKNEALKSEEGCIPNIAPDICIAYKLHLECSRLINLVDWSEAFATVVTAAEKMDANSATSEEMNEIIHARFIRAVSELELLGFIKPTKQKTDHVARLTWGGC
B3: MCM3 (protein, UniProt P25205 1-808)
chain: MAGTVVLDDVELREAQRDYLDFLDDEEDQGIYQSKVRELISDNQYRLIVNVNDLRRKNEKRANRLLNNAFEELVAFQRALKDFVASIDATYAKQYEEFYVGLEGSFGSKHVSPRTLTSCFLSCVVCVEGIVTKCSLVRPKVVRSVHYCPATKKTIERRYSDLTTLVAFPSSSVYPTKDEENNPLETEYGLSVYKDHQTITIQEMPEKAPAGQLPRSVDVILDDDLVDKAKPGDRVQVVGTYRCLPGKKGGYTSGTFRTVLIACNVKQMSKDAQPSFSAEDIAKIKKFSKTRSKDIFDQLAKSLAPSIHGHDYVKKAILCLLLGGVERDLENGSHIRGDINILLIGDPSVAKSQLLRYVLCTAPRAIPTTGRGSSGVGLTAAVTTDQETGERRLEAGAMVLADRGVVCIDEFDKMSDMDRTAIHEVMEQGRVTIAKAGIHARLNARCSVLAAANPVYGRYDQYKTPMENIGLQDSLLSRFDLLFIMLDQMDPEQDREISDHVLRMHRYRAPGEQDGDAMPLGSAVDILATDDPNFSQEDQQDTQIYEKHDNLLHGTKKKKEKMVSAAFMKKYIHVAKIIKPVLTQESATYIAEEYSRLRSQDSMSSDTARTSPVTARTLETLIRLATAHAKARMSKTVDLQDAEEAVELVQYAYFKKVLEKEKKRKKRSEDESETEDEEEKSQEDQEQKRKRRKTRQPDAKDGDSYDPYDFSDTEEEMPQVHTPKTADSQETKESQKVELSESRLKAFKVALLDVFREAHAQSIGMNRLTESINRDSEEPFSSVEIQAALSKMQDDNQVMVSEGIIFLI

Each molecule was assayed against HBoV1 NS1 (codon-optimized NS1-100) fused with BioID2 (human bocavirus 1 (HBoV1)) (UniProt D0EZM8) (assay: proximity labelling).

Which binding does the source give for “DNA-PKcs (DNA-dependent protein kinase catalytic subunit) (from UniProt P78527 1-4128)” here?
The binding was “binds”.

With HSPA8 (from UniProt P11142 1-646) as the molecule, how does the binding read?
The binding was “binds”.

For RPA1 (from UniProt P27694 1-616), which binding is on record?
The binding was “binds”.

Which binding does the source give for B1 here?
The binding was “binds”.

With B2 as the molecule, how does the binding read?
The binding was “binds”.

For B3, which binding is on record?
The binding was “binds”.

Results are given in words; binding and its absence hold for the method and conditions named. In cells and extracts the contact can be indirect. Here binding means that the protein was enriched with, or labelled near, the bait; the list need not be complete.
